The other results are listed elsewhere or left out. Most entries show no effect beyond the scatter of the controls.

The chains behind the UniProt entries cited, without tags or fusion partners. Where a name states a change or a piece, a line headed by the entry shows the natural chain unless it says otherwise.
UniProt P25519: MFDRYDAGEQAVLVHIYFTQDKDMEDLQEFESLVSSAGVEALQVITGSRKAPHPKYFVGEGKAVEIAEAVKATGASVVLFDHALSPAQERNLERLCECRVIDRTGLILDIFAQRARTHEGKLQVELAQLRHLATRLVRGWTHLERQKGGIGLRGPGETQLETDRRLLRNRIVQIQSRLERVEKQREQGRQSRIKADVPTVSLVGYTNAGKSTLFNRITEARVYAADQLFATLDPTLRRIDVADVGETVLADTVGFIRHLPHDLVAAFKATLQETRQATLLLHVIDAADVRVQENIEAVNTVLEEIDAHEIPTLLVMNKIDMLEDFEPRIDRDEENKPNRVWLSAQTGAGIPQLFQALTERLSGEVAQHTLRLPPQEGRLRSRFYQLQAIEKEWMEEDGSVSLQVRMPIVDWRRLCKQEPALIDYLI
UniProt P31979: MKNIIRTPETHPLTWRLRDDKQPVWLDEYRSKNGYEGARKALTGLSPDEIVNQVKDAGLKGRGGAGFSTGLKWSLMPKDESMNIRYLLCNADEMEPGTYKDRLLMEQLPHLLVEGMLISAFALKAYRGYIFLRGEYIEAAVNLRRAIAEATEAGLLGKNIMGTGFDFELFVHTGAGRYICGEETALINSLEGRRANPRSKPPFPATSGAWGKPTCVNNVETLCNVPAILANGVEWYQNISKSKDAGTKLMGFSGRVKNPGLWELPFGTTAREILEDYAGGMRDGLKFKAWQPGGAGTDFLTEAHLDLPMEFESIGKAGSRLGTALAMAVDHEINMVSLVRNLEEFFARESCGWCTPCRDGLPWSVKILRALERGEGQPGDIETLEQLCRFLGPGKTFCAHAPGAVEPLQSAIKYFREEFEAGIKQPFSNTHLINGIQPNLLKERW
UniProt P32685: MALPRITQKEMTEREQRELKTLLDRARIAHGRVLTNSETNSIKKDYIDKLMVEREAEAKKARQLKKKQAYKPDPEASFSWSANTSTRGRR
UniProt P27297: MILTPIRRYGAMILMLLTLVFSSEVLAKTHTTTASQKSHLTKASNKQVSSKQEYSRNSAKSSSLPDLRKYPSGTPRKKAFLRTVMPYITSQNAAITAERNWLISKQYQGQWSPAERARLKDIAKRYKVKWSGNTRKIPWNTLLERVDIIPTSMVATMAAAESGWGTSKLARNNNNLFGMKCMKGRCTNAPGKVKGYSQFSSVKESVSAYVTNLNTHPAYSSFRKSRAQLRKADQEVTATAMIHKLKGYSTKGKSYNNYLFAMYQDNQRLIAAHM
UniProt P27278: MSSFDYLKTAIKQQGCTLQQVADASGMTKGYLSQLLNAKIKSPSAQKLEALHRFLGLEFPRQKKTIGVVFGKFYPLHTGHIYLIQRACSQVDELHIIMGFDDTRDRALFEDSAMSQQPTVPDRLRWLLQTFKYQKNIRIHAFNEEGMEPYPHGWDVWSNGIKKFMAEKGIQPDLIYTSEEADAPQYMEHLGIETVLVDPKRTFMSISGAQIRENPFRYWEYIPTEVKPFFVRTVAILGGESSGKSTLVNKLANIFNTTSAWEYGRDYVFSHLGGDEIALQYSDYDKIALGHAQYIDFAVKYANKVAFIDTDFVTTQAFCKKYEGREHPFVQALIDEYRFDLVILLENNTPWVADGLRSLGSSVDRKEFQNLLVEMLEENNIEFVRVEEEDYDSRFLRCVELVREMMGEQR
UniProt P31826: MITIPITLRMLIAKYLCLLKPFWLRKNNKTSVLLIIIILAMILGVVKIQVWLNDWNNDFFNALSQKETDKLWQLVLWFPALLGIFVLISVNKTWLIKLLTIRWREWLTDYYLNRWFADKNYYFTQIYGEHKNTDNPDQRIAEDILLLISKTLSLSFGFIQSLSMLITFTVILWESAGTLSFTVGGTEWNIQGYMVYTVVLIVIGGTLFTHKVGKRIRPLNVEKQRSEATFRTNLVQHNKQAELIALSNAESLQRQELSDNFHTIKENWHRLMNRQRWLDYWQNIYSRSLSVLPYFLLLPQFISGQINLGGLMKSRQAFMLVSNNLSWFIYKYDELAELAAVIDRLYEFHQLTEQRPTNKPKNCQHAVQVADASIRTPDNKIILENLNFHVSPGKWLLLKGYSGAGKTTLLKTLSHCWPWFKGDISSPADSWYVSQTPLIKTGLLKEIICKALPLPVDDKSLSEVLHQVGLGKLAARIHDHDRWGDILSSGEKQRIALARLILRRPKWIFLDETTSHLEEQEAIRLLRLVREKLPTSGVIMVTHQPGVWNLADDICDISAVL
UniProt P27298: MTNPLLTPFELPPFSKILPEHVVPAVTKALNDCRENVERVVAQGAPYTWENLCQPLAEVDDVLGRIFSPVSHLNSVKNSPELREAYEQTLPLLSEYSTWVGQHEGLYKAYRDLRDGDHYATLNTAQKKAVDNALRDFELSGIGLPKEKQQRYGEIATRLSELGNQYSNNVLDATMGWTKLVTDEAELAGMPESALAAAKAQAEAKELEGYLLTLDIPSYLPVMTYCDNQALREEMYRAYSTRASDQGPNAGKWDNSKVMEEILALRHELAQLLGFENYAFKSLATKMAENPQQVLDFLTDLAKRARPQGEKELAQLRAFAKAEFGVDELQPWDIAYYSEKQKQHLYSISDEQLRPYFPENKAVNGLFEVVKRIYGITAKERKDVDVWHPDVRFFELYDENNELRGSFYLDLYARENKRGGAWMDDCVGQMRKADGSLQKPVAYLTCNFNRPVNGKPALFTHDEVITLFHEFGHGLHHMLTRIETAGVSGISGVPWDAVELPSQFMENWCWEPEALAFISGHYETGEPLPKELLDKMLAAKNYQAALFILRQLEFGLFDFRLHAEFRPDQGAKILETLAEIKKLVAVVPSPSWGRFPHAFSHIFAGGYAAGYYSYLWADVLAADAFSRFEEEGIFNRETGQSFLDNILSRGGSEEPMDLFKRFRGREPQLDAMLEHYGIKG
UniProt P32139: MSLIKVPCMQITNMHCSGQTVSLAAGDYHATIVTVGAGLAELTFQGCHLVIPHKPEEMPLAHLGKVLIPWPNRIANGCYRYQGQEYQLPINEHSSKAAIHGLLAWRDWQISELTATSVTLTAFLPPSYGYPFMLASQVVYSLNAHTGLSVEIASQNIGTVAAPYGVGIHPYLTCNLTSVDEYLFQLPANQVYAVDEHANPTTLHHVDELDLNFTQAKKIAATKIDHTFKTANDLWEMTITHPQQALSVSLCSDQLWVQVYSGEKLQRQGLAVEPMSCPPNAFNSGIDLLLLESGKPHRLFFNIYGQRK
UniProt P27830: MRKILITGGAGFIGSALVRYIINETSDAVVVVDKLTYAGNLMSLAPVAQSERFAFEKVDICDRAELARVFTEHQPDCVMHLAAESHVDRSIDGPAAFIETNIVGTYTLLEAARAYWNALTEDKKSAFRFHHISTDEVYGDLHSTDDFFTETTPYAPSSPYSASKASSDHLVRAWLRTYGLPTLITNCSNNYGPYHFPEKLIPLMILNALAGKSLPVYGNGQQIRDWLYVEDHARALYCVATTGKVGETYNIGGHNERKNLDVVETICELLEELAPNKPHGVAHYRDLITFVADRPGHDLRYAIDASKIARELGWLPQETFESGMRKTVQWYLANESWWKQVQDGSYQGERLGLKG
UniProt P30128: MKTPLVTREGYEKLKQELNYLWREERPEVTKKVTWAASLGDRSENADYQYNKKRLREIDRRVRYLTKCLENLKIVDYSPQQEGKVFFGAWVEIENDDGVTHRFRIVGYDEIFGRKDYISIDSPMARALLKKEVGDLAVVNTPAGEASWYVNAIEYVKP
UniProt P25437: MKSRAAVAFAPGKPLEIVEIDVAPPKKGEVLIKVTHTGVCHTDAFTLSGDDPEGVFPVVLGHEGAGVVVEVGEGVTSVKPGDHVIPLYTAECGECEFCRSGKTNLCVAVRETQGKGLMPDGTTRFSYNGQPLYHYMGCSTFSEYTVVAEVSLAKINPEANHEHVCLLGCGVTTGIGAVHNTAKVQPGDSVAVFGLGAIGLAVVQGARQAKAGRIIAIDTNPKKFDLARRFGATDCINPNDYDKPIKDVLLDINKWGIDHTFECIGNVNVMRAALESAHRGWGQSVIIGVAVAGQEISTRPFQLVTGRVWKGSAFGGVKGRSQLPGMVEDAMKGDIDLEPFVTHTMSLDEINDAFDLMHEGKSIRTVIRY

Compound in this experiment: CC1(C)S[C@@H]2[C@H](NC(=O)[C@H](N)c3ccccc3)C(=O)N2[C@H]1C(=O)O [ampicillin]
Nature of the experiment: log2 fold change of tryptic peptide abundance, ligand vs vehicle (limited proteolysis) (log2 ratio); higher = more trypsin-susceptible (destabilized). The settings on record: ligand concentration: 10 uM; sample: E. coli crude lysate.
Consider “UniProt P25519 (peptide sequence: MPIVDWR, peptide start residue: 406)”, for which the log2 fold change was -0.115.

For the target “UniProt P31979 (peptide sequence: EILEDYAGGMRDGLK, peptide start residue: 272)”, the log2 fold change is -0.373.

On to “UniProt P32685 (peptide sequence: DYIDKLMVER, peptide start residue: 45)”, for which the log2 fold change was -0.107.

On to “UniProt P27297 (peptide sequence: SSSLPDLR, peptide start residue: 61)”, for which the log2 fold change was -0.13.

For the target “UniProt P27278 (peptide sequence: IKSPSAQKLEALHR, peptide start residue: 40)”, the log2 fold change was -0.263.

Consider “UniProt P31826 (peptide sequence: NCQHAVQVADASIR, peptide start residue: 362)”, for which the log2 fold change came out at 0.0303.

For the target “UniProt P27298 (peptide sequence: QHLYSISDEQLRPYFPENK, peptide start residue: 343)”, the log2 fold change was -0.299.

As for “UniProt P32139 (peptide sequence: YQGQEYQLPINEHSSK, peptide start residue: 81)”, the log2 fold change was -0.278.

On to “UniProt P27830 (peptide sequence: VDICDRAELAR, peptide start residue: 58)”, for which the log2 fold change is -1.03.

For the target “UniProt P30128 (peptide sequence: SENADYQYNKKR, peptide start residue: 43)”, the log2 fold change is -0.552.

With “UniProt P25437 (peptide sequence: SQLPGMVEDAMK, peptide start residue: 321)”, the log2 fold change was 0.172.

For the origin of these results see the supplement of paper PMC12819154, “High-throughput peptide-centric local stability assay extends protein–ligand identification to membrane proteins, tissues and bacteria” (Nature Structural & Molecular Biology, 2025).
